According to publication PMC10754441:
For at least one entry, the source does not settle the construct or the ends of the probe. No signal at the amounts used counts as a negative. Where a protein sequence is shown, tags need not be part of it. Weaker means in comparison with the reference protein, sequence or condition of that experiment.

Molecular target: T1, TipR (Caulobacter crescentus NA1000) (UniProt A0A0H3C6G9)
T1 sequence (looked up, limits assumed): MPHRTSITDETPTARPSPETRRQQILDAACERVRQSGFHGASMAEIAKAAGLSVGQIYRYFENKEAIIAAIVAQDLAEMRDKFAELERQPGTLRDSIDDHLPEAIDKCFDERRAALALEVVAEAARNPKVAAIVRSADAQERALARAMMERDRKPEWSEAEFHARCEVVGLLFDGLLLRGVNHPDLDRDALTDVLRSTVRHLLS
Assay: EMSA
Settings: EMSA: 40 mM Tris-HCl pH 7.6, 60 mM KCl, 0.1% glycerol, 240 ug calf DNA, 800 ug BSA, 100-200 ng probe, 30 min room temperature, 4% native TBE acrylamide gel, recombinant protein, protein details: untagged, label: Cy5, probe letters rebuilt from the primers and the genome

Row | Sequence | binding result (1.125-18 uM TipR) | binding result (crystal violet, 8 uM TipR, less efficient than EtBr or MG) | binding result (ethidium bromide, 8 uM TipR, interferes) | binding result (malachite green, 8 uM TipR, interferes) | binding result (rhodamine 6G, 8 uM TipR, less efficient than EtBr or MG)
1 | ATGTTGCGCCAGAAGGACATGGGTCGCCTCGAAACCAGCAACGGACAGGAGAGATACGCACGACAAAGCGACCGGATCACCTCATTCCGCGCTTCTAGCACAATGAGAATGATCGTTCACATGACTTTAGTGCAATGCGGCGAGAGCCCGCACCAATACCGCCAAGGAGCCGAACGCGCTTCGAGTGGCTATGGCTCCGCTTGGCGGCCGATACGGCGCCGCCACGCAACGGTCCCAATCCGGATCGAAATGCTCTAGTGACGACACCTGACAACAAAAAGGACCTCCGCCGCATGGCGAACGCCCTCTTCCTA (double strand) [PdjlA] | binds | – | – | – | –
2 | TACCACGCGAAGGTCCATGTCGAGGGCCTGCGGCGCCTGGGTCCCTCGCCGATCCATCGGCTGGGCTGGGCCCCGGTGAAGGCGGCTCTGGCGGCGGCGGCGGTCAACGGCGAGCTAGACCTTTGAACGTCTTCAACTTTTGAGTCTGATCAGACTCAAAAGCGCCTGAAAGGCCGTGGTTAACGGCCCGCTAACCACGTCTCTCAACACCGGATTTACCAGGAAGACTCATGATTCCGCTCTCTTTCTTGAGGACGTGGGACCATGAAGTTCGGGCCGGAAACCATCATCCACGGCGACTGCATCGAGCAGATGAACGC (double strand) [PccrM] | no binding | – | – | – | –
3 | GGCGGCGAGTCCCACGGTCGTCGCCGCGACCGAGCGTTGGAAATGCATGTTTGACCCCGGGAGGCGAGGGTCGCGCGGGCTCTTACCCTTGACGCGGCCACTATGATGAACGATTTGAGAATGAACGTTCATTCTCATGTGGGCTGGACATAAGAGCTGGAGTGTCGCAAGTCAACCTCCGGCGCCGCGCGTTTGGCTGACCTAACGGAAATGTAATGCCGCACAGGACTTC (double strand) [PacrA] | – | binds more weakly | binds more weakly | binds more weakly | binds more weakly
